Data taken from the M2OR odorant receptor database.
Positions count from the first letter of the chain named. This is one part of the list. Calls are pooled over several reports, among them a noisy single-well screen.

Chains of the proteins cited; added tags and fusions are not shown. Chains listed by the source or under a name are the forms on record and can include a tag or linker.
O11H2, as listed by the source: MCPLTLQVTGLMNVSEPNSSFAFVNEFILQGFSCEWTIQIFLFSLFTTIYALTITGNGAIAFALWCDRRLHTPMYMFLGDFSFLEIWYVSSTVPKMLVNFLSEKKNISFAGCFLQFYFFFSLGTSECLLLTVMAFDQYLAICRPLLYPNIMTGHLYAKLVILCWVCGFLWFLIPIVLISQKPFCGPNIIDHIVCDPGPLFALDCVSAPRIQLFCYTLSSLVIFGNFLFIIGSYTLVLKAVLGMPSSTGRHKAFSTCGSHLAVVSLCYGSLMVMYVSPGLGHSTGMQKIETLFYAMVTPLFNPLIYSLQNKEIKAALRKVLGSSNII

What was measured:
Conditions in all cases: stereoisomer not certain
O10J3 = tested on: T1, O10J3
T1 sequence (whole entry): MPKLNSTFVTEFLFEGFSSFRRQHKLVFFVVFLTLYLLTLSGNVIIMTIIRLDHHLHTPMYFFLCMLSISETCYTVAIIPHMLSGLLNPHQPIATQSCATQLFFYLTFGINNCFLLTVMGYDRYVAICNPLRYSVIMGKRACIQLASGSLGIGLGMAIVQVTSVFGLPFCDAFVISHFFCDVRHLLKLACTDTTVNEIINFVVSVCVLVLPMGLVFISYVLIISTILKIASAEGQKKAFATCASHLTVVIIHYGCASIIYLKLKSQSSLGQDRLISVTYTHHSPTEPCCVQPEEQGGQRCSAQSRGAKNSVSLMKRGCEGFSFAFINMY
Method in brief: (§1)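 Each entry records the cell line, G-protein, co-transfected protein and tags used. Methods varied with the source, often transient luciferase assays in mammalian cell lines. A receptor–molecule pair is called responsive (active) if the original authors judged its signal statistically different from baseline and non-responsive (inactive) otherwise.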

O10J5 = tested on: T2, O10J5
T2 sequence (whole entry): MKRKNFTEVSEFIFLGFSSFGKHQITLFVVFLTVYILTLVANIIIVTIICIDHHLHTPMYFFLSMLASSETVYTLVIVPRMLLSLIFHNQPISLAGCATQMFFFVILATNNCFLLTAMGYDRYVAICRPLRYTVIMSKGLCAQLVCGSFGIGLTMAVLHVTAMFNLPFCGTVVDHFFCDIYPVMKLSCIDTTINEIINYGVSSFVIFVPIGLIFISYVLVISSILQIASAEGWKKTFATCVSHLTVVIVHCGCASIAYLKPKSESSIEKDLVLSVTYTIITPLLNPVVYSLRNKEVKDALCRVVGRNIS
Method in brief: as §1

O10P1 = tested on: T3, O10P1
T3 sequence (whole entry): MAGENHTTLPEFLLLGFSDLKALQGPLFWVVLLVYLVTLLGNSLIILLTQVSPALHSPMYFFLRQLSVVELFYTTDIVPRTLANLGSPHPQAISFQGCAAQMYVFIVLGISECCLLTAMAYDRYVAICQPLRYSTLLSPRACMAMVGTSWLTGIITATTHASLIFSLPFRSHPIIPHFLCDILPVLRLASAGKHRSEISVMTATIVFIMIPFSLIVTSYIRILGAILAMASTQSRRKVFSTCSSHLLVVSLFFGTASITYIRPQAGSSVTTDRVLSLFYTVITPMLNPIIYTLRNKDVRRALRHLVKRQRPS
Method in brief: as §1

O10Q1 = tested on: T4, O10Q1
T4 sequence (whole entry): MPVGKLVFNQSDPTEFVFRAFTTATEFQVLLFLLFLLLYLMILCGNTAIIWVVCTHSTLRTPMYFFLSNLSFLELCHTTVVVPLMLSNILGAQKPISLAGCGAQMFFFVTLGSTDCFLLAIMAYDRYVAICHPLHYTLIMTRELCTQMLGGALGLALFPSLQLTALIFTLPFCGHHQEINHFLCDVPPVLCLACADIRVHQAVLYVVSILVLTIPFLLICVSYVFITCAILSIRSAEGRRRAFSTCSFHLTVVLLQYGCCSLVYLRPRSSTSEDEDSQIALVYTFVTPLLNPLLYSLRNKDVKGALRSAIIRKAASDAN
Method in brief: as §1

O10R2 [1] = tested on: T5, O10R2
T5 sequence (whole entry): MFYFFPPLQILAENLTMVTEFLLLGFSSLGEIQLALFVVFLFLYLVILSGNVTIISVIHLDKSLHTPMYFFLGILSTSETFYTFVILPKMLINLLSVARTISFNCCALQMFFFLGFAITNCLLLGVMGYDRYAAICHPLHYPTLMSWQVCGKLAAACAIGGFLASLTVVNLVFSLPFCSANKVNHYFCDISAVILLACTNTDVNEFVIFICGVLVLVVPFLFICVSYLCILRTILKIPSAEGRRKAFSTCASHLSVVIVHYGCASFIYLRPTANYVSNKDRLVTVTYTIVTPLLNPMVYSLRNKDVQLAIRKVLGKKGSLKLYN
Method in brief: as §1

O10R2 [2] = tested on: T6, O10R2; remark: listed apart in the source
T6 sequence (whole entry): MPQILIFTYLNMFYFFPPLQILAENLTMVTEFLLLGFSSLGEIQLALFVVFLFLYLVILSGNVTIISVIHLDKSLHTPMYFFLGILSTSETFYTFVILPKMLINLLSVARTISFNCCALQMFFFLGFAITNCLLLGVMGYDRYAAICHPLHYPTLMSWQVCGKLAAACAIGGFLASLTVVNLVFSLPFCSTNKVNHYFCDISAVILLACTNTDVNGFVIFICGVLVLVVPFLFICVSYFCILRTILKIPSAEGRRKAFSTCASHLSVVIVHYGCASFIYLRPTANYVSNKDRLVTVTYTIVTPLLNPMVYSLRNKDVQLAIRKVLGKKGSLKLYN
Method in brief: as §1

O10V1 = tested on: T7, O10V1
T7 sequence (whole entry): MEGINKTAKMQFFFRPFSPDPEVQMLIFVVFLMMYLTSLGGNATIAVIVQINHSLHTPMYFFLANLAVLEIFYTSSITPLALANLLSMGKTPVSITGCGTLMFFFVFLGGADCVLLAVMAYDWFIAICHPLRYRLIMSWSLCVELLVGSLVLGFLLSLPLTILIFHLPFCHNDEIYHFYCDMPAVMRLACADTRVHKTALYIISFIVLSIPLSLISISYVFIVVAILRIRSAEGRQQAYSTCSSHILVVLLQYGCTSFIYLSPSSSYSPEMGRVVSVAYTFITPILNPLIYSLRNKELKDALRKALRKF
Method in brief: as §1

O10W1 = tested on: T8, O10W1
T8 sequence (whole entry): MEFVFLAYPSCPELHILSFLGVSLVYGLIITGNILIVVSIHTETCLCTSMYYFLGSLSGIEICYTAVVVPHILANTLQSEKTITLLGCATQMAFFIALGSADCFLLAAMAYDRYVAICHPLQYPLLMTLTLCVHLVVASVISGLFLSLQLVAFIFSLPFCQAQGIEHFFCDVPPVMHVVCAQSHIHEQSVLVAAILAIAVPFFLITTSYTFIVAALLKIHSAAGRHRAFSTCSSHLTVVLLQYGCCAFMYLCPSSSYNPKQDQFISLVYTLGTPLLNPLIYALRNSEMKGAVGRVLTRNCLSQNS
Method in brief: as §1

O10X1 = tested on: T9, O10X1
T9 sequence (whole entry): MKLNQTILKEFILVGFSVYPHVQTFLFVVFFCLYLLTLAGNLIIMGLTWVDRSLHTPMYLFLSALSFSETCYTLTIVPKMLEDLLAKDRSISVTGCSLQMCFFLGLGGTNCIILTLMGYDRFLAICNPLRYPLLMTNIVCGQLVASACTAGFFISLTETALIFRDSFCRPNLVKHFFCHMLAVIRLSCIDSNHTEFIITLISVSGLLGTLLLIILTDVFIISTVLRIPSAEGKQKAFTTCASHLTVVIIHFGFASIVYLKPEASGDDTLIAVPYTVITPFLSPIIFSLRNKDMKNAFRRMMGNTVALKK
Method in brief: as §1

O11G2 = tested on: T10, O11G2
T10 sequence (whole entry): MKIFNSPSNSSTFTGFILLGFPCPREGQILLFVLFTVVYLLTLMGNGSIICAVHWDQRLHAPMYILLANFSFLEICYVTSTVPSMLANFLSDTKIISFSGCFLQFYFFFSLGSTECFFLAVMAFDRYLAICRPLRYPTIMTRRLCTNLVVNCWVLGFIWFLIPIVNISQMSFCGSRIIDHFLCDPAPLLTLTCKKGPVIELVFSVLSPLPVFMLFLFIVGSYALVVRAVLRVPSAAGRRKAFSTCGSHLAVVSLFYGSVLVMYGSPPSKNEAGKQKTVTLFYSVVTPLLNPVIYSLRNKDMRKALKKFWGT
Method in brief: as §1

O11H1 [3] = tested on: T11, O11H1
T11 sequence (whole entry): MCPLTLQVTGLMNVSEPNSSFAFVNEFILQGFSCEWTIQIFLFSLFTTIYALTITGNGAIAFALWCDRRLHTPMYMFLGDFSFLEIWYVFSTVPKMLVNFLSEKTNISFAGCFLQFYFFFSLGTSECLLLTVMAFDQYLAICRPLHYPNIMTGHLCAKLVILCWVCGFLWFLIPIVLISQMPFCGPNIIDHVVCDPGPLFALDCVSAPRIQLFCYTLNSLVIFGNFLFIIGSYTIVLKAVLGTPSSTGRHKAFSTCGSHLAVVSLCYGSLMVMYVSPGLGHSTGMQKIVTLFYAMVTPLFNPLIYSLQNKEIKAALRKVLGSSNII
Method in brief: as §1

O11H1 [4] = tested on: T12, O11H1; remark: listed apart in the source
T12 sequence (whole entry): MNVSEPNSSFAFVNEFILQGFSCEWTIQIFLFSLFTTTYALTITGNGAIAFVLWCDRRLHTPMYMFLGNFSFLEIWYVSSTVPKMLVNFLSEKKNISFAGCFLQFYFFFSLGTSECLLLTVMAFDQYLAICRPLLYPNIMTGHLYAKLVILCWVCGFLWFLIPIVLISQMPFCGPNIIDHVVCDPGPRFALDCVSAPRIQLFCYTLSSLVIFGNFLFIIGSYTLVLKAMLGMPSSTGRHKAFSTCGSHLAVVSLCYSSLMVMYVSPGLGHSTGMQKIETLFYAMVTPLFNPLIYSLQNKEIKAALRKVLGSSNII
Method in brief: as §1

O11H2 = tested on: T13, O11H2
T13 sequence (whole entry): T11 sequence (whole entry) with F90S, T105K, H146L, C156Y, M181K, V192I, N218S, I235L, T243M, V289E
Method in brief: as §1

O11H4 = tested on: T14, O11H4
T14 sequence (whole entry): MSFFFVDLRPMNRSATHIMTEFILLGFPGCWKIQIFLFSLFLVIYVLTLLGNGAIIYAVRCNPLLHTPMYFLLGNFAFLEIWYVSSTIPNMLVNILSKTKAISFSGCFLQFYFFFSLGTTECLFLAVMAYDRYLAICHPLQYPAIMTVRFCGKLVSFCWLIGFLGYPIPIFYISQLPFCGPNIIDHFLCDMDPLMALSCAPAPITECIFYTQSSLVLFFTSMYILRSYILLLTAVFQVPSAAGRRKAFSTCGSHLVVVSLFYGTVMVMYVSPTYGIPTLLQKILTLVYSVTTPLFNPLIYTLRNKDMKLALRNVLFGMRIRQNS
Method in brief: as §1

O11L1 = tested on: T15, O11L1
T15 sequence (whole entry): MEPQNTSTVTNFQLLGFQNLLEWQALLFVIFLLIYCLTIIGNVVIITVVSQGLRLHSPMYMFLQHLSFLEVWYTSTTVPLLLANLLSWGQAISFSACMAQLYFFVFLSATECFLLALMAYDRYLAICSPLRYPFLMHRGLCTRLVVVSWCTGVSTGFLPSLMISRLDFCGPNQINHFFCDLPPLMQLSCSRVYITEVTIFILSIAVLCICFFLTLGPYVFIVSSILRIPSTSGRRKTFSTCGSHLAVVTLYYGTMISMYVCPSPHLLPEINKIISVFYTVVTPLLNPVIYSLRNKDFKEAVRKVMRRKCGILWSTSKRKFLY
Method in brief: as §1

O12D2 = tested on: T16, O12D2
T16 sequence (whole entry): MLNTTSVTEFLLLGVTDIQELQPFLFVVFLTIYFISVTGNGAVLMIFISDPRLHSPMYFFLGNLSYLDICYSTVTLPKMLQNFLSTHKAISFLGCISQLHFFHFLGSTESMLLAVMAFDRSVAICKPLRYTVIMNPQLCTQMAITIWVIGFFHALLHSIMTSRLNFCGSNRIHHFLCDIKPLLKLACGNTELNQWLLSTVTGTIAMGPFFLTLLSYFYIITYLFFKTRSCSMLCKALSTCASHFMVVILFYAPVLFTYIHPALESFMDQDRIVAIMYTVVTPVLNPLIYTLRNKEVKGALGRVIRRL
Method in brief: as §1

O13C3 = tested on: T17, O13C3
T17 sequence (whole entry): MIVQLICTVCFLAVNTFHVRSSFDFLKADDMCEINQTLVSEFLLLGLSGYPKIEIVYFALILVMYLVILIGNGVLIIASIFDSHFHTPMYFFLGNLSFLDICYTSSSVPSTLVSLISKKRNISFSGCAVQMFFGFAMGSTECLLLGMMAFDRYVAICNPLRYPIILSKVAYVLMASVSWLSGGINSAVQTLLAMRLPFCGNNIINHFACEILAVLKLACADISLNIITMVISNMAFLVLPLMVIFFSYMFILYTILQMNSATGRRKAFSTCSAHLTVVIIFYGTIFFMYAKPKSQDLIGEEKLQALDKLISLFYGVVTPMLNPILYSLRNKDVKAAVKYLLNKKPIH
Method in brief: as §1

Measured: odorant receptor agonist call

CC(C)C=O
inactive: all assays above

COC(=O)c1ccccc1
not listed: O10J3 | O11G2 | O11H1 [4]
inactive: all other assays above
